# The list is a part of this screen's results and no random one: it gathers tests that were run many times, whatever their T/C, doses with no T/C, and many T/C values between a quarter and a half above the control. Further doses and runs are listed elsewhere. T/C is the treated group as % of the vehicle group. Some doses have a count of surviving animals in place of a T/C: the source holds a T/C of zero for them, seemingly a mark for toxic or unscored doses. Some doses without a T/C left all or most animals alive at the check, yet need not have been tolerated: survival well below the control is almost never listed, so the zero probably covers shortened survival too. Survivors were counted at the toxicity check, usually on the fifth day, unless a day is given; later deaths do not show. Schedule codes are those of the source, taken here to give the interval after Q, in days (D) or hours (H), and the number of doses after X. Some entries were tested several times; the results are listed from low to high. Where survival is the endpoint, the PubChem record calls one and a half times the control and up active, and a quarter to a half above the control has no call in these data; cut-offs in other NCI protocols can differ. Some T/C values carry the count of animals alive at the toxicity check (mostly the fifth day); without a count, all were alive then.
# Tested on: BDF1 mice, B16 melanoma ip, median survival T/C
# Experiment: NCI In Vivo Anticancer Drug Screen. Data for tumor model B16 Melanoma (intraperitoneal) in B6D2F1 (BDF1) mice
# Conditions: T/C endpoint: median survival time, higher T/C = longer survival
# How it was run: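 The ratio T/C compares compound-treated mice with vehicle-treated controls, using survival or tumor size as the endpoint in a transplantable tumor model.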
# [1] = dose: 50.0 mg/kg/injection, schedule: Q01DX009 (ip), vehicle: saline with Tween-80
# [2] = dose: 100.0 mg/kg/injection, schedule: Q01DX009 (ip), vehicle: saline with Tween-80
# [3] = dose: 200.0 mg/kg/injection, schedule: Q01DX009 (ip), vehicle: saline with Tween-80
# [4] = dose: 25.0 mg/kg/injection, schedule: Q01DX009 (ip), vehicle: saline
# [5] = dose: 200.0 mg/kg/injection, schedule: Q01DX009 (ip), vehicle: saline
# [6] = dose: 12.0 mg/kg/injection, schedule: Q01DX009 (ip), vehicle: saline with Tween-80
# [7] = dose: 24.0 mg/kg/injection, schedule: Q01DX009 (ip), vehicle: saline with Tween-80
# [8] = dose: 0.4 mg/kg/injection, schedule: Q01DX009 (ip), vehicle: saline with Tween-80
# [9] = dose: 100.0 mg/kg/injection, schedule: Q01DX009 (ip), vehicle: Klucel (hydroxypropylcellulose) (HPC)
compound,measurement,setting,value
CCCCNC(C)(C)C(SSSC(c1cccs1)C(C)(C)NCCCC)c1cccs1 (stereo unspecified),survivor count,[1],10 of 10
same,survivor count,[2],10 of 10
same,survivor count,[3],10 of 10
FC(F)(F)c1ccc2c(c1)N(CCCNCCN1CCOCC1)c1ccccc1S2,survivor count,"dose: 3.12 mg/kg/injection, schedule: Q04DX003 (ip), vehicle: saline",10 of 10
same,survivor count,"dose: 6.25 mg/kg/injection, schedule: Q01DX009 (ip), vehicle: saline",10 of 10
same,survivor count,[4],10 of 10
same,survivor count,"dose: 100.0 mg/kg/injection, schedule: Q04DX003 (ip), vehicle: saline",0 of 10
same,survivor count,"dose: 200.0 mg/kg/injection, schedule: Q04DX003 (ip), vehicle: saline",0 of 10
same,survivor count,"dose: 400.0 mg/kg/injection, schedule: Q04DX003 (ip), vehicle: saline",0 of 10
CC(N)Cc1cn(C)c2ccccc12 (stereo unspecified),survivor count,[5],0 of 10
same,survivor count,"dose: 400.0 mg/kg/injection, schedule: Q01DX009 (ip), vehicle: saline",0 of 10
COc1cc(O)c2c(O)c3c(c4c2c1[C@]1(C4)C(C)=CCCC1(C)C)[C@H](O)[C@@]1(O)CC(=O)C(C(N)=O)=C(O)[C@@]1(O)C3=O,survivor count,[6],5 of 6
same,survivor count,[7],0 of 6
same,survivor count,"dose: 48.0 mg/kg/injection, schedule: Q01DX009 (ip), vehicle: saline with Tween-80",1 of 6
COC(=O)C12OCC34C(CC5C(C)=C(O)C(=O)CC5(C)C3C(O)C1O)OC(=O)C(OC(=O)/C=C(\C)C(C)(C)O)C24 (stereo unspecified),T/C,"dose: 0.05 mg/kg/injection, schedule: Q01DX009 (ip), vehicle: saline with Tween-80",130 % of control [9 of 10 alive]
same,T/C,"dose: 0.05 mg/kg/injection, schedule: Q01DX009 (ip), vehicle: saline",133 % of control
same,T/C,"dose: 0.1 mg/kg/injection, schedule: Q01DX009 (ip), vehicle: saline with Tween-80",139 % of control
same,T/C,"dose: 0.1 mg/kg/injection, schedule: Q01DX009 (ip), vehicle: saline",125 % of control
same,T/C,"dose: 0.2 mg/kg/injection, schedule: Q01DX009 (ip), vehicle: saline with Tween-80",140 and 147 % of control
same,T/C,[8],144 % of control
same,T/C,"dose: 0.8 mg/kg/injection, schedule: Q01DX009 (ip), vehicle: saline with Tween-80",140 % of control
same,T/C,"dose: 0.8 mg/kg/injection, schedule: Q01DX009 (ip), vehicle: saline",147 % of control
C=C(C)[C@]12CC(C)C34OC(/C=C\C=C\CCCCCCCCC)(O[C@@H]1[C@@H]3[C@@H]1O[C@]1(CO)[C@@H](O)[C@]1(O)C(=O)C(C)=C[C@@H]41)O2 (stereo partly specified),survivor count,"dose: 0.38 mg/kg/injection, schedule: Q01DX009 (ip), vehicle: alcohol",10 of 10
same,survivor count,"dose: 0.75 mg/kg/injection, schedule: Q01DX009 (ip), vehicle: alcohol",10 of 10
same,survivor count,"dose: 0.75 mg/kg/injection, schedule: Q01DX009 (ip), vehicle: saline + alcohol",8 of 10 and 9 of 10
same,survivor count,"dose: 1.5 mg/kg/injection, schedule: Q01DX009 (ip), vehicle: alcohol",9 of 10
same,survivor count,"dose: 1.5 mg/kg/injection, schedule: Q01DX009 (ip), vehicle: saline + alcohol",4 of 10
same,survivor count,"dose: 3.0 mg/kg/injection, schedule: Q01DX009 (ip), vehicle: alcohol",0 of 10
same,survivor count,"dose: 3.0 mg/kg/injection, schedule: Q01DX009 (ip), vehicle: saline + alcohol",0 of 10
CC1(C)N=C(N)N=C(N)N1c1ccc(OCC(=O)N2CCOCC2)c(Cl)c1,survivor count,[5],3 of 6
C1CCC2C[N-]CCC2C1.C1CCC2C[N-]CCC2C1.C1CCC2C[N-]CCC2C1.C1CCC2C[N-]CCC2C1.[Cl][Rh][Cl] (stereo unspecified),survivor count,"dose: 8.0 mg/kg/injection, schedule: Q01DX009 (ip), vehicle: saline with Tween-80",4 of 10
CCCC(=O)OC1C=C2N3C(=O)C4CC56C(=CC(OC(C)=O)C7OC75)N4C(=O)C3CC26C2OC12 (stereo unspecified),survivor count,"dose: 1.0 mg/kg/injection, schedule: Q01DX009 (ip), vehicle: Klucel (hydroxypropylcellulose) (HPC)",10 of 10
same,survivor count,"dose: 2.0 mg/kg/injection, schedule: Q01DX009 (ip), vehicle: Klucel (hydroxypropylcellulose) (HPC)",10 of 10
CC12CC3OC(=O)C1COC14OC5(C2C1=O)C(O)(CCC1C4CC(O)C2(O)CC=CC(=O)C12C)C(=O)OC35C (stereo unspecified),T/C,"dose: 48.0 mg/kg/injection, schedule: Q01DX009 (ip), vehicle: Klucel (hydroxypropylcellulose) (HPC)",129 % of control [8 of 10 alive]
O=c1cc(CCl)[nH]nc1CCl,T/C,"dose: 6.0 mg/kg/injection, schedule: Q01DX009 (ip), vehicle: saline with Tween-80",131 % of control
same,T/C,"dose: 6.25 mg/kg/injection, schedule: Q01DX009 (ip), vehicle: saline with Tween-80",130 % of control
same,T/C,[6],128 % of control
same,survivor count,[7],10 of 10
same,survivor count,"dose: 25.0 mg/kg/injection, schedule: Q01DX009 (ip), vehicle: saline with Tween-80",9 of 10
same,survivor count,[1],6 of 10
same,survivor count,[2],0 of 10
CC(=O)CC(c1ccccc1)c1c(O)c2ccccc2oc1=O (stereo unspecified),survivor count,[8],9 of 10
NC(CC(=O)CCl)C(=O)O (stereo unspecified),T/C,"dose: 12.5 mg/kg/injection, schedule: Q01DX009 (ip), vehicle: saline",126 % of control
same,T/C,[4],137 % of control
NC(=O)N1CCN(CCCN2c3ccccc3Sc3cc(Cl)ccc32)CC1,survivor count,"dose: 1.56 mg/kg/injection, schedule: Q01DX009 (ip), vehicle: Klucel (hydroxypropylcellulose) (HPC)",10 of 10
same,survivor count,"dose: 50.0 mg/kg/injection, schedule: Q01DX009 (ip), vehicle: Klucel (hydroxypropylcellulose) (HPC)",5 of 10
same,survivor count,[9],0 of 10
same,survivor count,"dose: 200.0 mg/kg/injection, schedule: Q01DX009 (ip), vehicle: Klucel (hydroxypropylcellulose) (HPC)",0 of 10
same,survivor count,"dose: 400.0 mg/kg/injection, schedule: Q01DX009 (ip), vehicle: Klucel (hydroxypropylcellulose) (HPC)",0 of 10
Cc1cc(N=NC(N)=S)c2ccccc2c1O,survivor count,[2],10 of 10
same,survivor count,[3],10 of 10
same,survivor count,"dose: 400.0 mg/kg/injection, schedule: Q01DX009 (ip), vehicle: saline with Tween-80",10 of 10
Cc1[nH]ccc2c(C)c3nc4ccc(O)cc4c3cc12,T/C,"dose: 5.0 mg/kg/injection, schedule: Q04DX003 (ip), vehicle: water",129 % of control
same,T/C,"dose: 10.0 mg/kg/injection, schedule: Q04DX003 (ip), vehicle: water, evaluated on day 45",140 % of control
same,T/C,"dose: 10.0 mg/kg/injection, schedule: Q04DX003 (ip), vehicle: water, evaluated on day 60",131 % of control
same,T/C,"dose: 20.0 mg/kg/injection, schedule: Q04DX003 (ip), vehicle: water",147 % of control
same,survivor count,"dose: 40.0 mg/kg/injection, schedule: Q04DX003 (ip), vehicle: water",9 of 10
same,survivor count,"dose: 80.0 mg/kg/injection, schedule: Q04DX003 (ip), vehicle: water",9 of 10
CC(C)C(NC(=O)OC(C)(C)C)C(=O)O (stereo unspecified),survivor count,[9],10 of 10
COc1cccc2c1C(=O)c1c(O)c3c(c(O)c1C2=O)CC(O)(/C(C)=N/NC(=O)CCC(=O)N/N=C(\C)C1(O)Cc2c(O)c4c(c(O)c2C(OC2CC(N)C(O)C(C)O2)C1)C(=O)c1c(OC)cccc1C4=O)CC3OC1CC(N)C(O)C(C)O1 (stereo unspecified),T/C,"dose: 2.0 mg/kg/injection, schedule: Q01DX001 (ip), vehicle: water",128 % of control
same,T/C,"dose: 4.0 mg/kg/injection, schedule: Q01DX001 (ip), vehicle: water",140 % of control
same,T/C,"dose: 16.0 mg/kg/injection, schedule: Q01DX001 (ip), vehicle: water",146 % of control
same,survivor count,"dose: 64.0 mg/kg/injection, schedule: Q01DX001 (ip), vehicle: water",10 of 10
same,survivor count,"dose: 128.0 mg/kg/injection, schedule: Q01DX001 (ip), vehicle: water",3 of 10
O=C(CCN1CCCCC1)c1cccc([N+](=O)[O-])c1,survivor count,"dose: 200.0 mg/kg/injection, schedule: Q04DX003 (ip), vehicle: Klucel (hydroxypropylcellulose) (HPC)",2 of 10
same,survivor count,"dose: 400.0 mg/kg/injection, schedule: Q04DX003 (ip), vehicle: Klucel (hydroxypropylcellulose) (HPC)",0 of 10

# From PubChem BioAssay AID192 (DTP/NCI, 2004)
